Laboratory results: patent US6994981B2, “Modulators of paraptosis and related methods” (The Buck Institute, priority 2002, dated 2006)

How the values were obtained:
[1] = test system: 293T cells transfected with NK1R; test: SP-induced, NK1R-mediated cell death in 293T cells transfected with NK1R, trypan blue and staining; type: cell-based, human
Method: Human embryonic kidney 293T cells were grown as described in Example I. Transient transfection was performed using Superfect (Qiagen) as described by the manufacturer. Briefly, 2×10^5 cells/well were seeded into 35 mm wells 16 hr prior to transfection. Superfect:DNA complexes were added at a 5 μl:2 μg ratio for 3 hr; then the medium was replaced and after 24 hr SP was added. At 24–48 hr after addition of SP cell death was quantified as follows: the media containing floating cells were collected and centrifuged 10 min at 2000×g, the pellet was resuspended in PBS/trypan blue and the cells were counted using a hematocytometer. When other compounds were used, they were added at the same time as SP: zVAD.fmk or BAF was added at 50 μM and obtained from Enzyme System Products, Livermore, Calif. […]
(§1) The protein kinase inhibitors were added 30 min before SP exposure at the following concentrations: 10 μM Rp-8-Br-cAMPS (adenosin 3′,5′-cyclic monophosphorothioate, 8-bromo-, Rp-isomer, sodium salt) which is a PKA inhibitor; 50 nM Calphostin C, which is a PKC inhibitor; 10 μM PD 98059 which is a MAPKK (MEK) inhibitor. […] Viability was quantified by trypan blue staining of the total cell population.

[2] = test system: striatal, cortical, and hippocampal neurons; test: SP-induced cell death in primary striatal, cortical and hippocampal neurons, trypan blue viability and staining; type: cell-based, rat; conditions: cells undergoing SP-induced cell death
Method: Rat neuronal primary cell cultures were also used to assay for inducers and inhibitors of paraptosis. Briefly, primary striatal, cortical and hippocampal cultures were prepared from 17-day-old Sprague-Dawley rat embryos (B&K). The tissue was dissected, minced and trypsinized for five minutes using 0.25% trypsin (Cell Grow). After the addition of 10% horse serum (Life Technologies) to inhibit the trypsin, the cell suspension was triturated 15–20 times with a 10 ml syringe and centrifuged for five minutes at 800×g. The pellet was resuspended in MEM-PAK (UCSF Cell Culture facility), supplemented with 2.02 gm glucose, 2 mM GLUTAMAX™ (Life Technologies) and penicillin/streptomycin (100 U/ml). […]
Primary neuronal cells were prepared as described in Example I. SP (SIGMA) at a concentration of 0.1 nM–100 μM was added 24–48 hrs after seeding, in the presence of 2.5% horse serum. […] Viability was quantified by trypan blue staining of the total cell population. […]
as §1

SP: eleven amino acid neurotransmitter of the tachykinin family, ligand of NK1R
TUNEL staining for DNA fragmentation ([1]; NK1R-mediated cell death): negative
Annexin-V staining ([1]; NK1R-mediated death of 293T cells): negative
nuclear fragmentation, DAPI staining [2]: no nuclear fragmentation
phosphatidylserine flipping, annexin-V staining [2]: no evidence for phosphatidylserine flipping
